Reference: PubChem BioAssay AID1508597 (Cure First, 2020)

Aim: 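Survival screen with siRNA in ovarian cancer cells derived from patients, with or without rucaparib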 (primary screen)
Cells: human ovarian carcinoma lines grown from tumours: OCI-P5x (papillary serous) and OCI-C5x (clear cell)
Reagent: siRNA pool against human genes, 1.25 pmol siRNA per well
Timing: 72 h or 96 h, depending on the cell culture
Conditions: rucaparib 20 µM (about IC30) or vehicle, present until read-out
Rucaparib or vehicle: Rucaparib
Cell line: OCI-P5x (serous)
Read-out: 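ATP luminescence measured at 72 or 96 h according to the culture, then normalised and expressed as percent viability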
Direction: viability, normalised: higher = more viable cells remaining
Call rule: 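a well counts as a hit if its normalised viability is under 80 percent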
Meaning of the calls: active = viability under 80%; inactive = viability 80% or more
This is a random part of the about 2,100 reagents, under one of the conditions tested. 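Calls flag viability under 80% in either arm, not effects specific to rucaparib; the reference for percent is not stated.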 Some reagents were tested in more than one well and are listed for each. Not given: the 100% reference.

gene symbol	technical replicate	viability, normalised (%)	Outcome
PDE3A	1	59.2	active
PDE3A	2	50.4	active
PDE3A	3	51.6	active
TF	1	162	inactive
TF	2	168	inactive
TF	3	137	inactive
TP53BP1	1	130	inactive
TP53BP1	1	82.2	inactive
TP53BP1	2	128	inactive
TP53BP1	2	91.6	inactive
TP53BP1	3	81.9	inactive
TP53BP1	3	72.2	active
ORC1	1	46.1	active
ORC1	2	63.7	active
ORC1	3	52.4	active
PKN2	1	49	active
PKN2	2	72.9	active
PKN2	3	71.1	active
MAD2L2	1	74.6	active
MAD2L2	2	72.9	active
MAD2L2	3	72.4	active
RNF2	1	53.5	active
RNF2	2	54.3	active
RNF2	3	59.1	active

Single entries from above.
PDE3A, technical replicate 1, Outcome → active
For “viability, normalised (%)”, PKN2, technical replicate 2 has 72.9
PKN2, technical replicate 3, viability, normalised (%): 71.1
Under “viability, normalised (%)”, ORC1, technical replicate 2 has 63.7
